± gives the uncertainty stated by the source. Many of these values have a large error.
Assay: self-splicing fitness, log relative to wild type (ln ratio); higher = more splicing; Tetrahymena group I intron in knt gene, E. coli kanamycin selection, DiMSum; sequences stand for … in CUCUCU…GGAGGGAAAAGUUAUCAGGCAUGCACCUGGUAGCUAGUCUUUAAACCAAUAGAUUGCAUCGGUUUAAAAGGCAAGACCGUCAAAUUGCGGGAAAGGGGUCAACAGCCGUUCAGUACCAAGUCUCAGGGGAAACUUUGAGAUGGCCUUGCAAAGGGUAUGGUAAUAAGCUGACGGACAUGGUCCUAACCACGCAGCCAAGUCCUAAGUCAACAGAUCUUCUGUUGAUAUGGAUGCAGUUCACAGACUAAAUGUCGGUCGGGGAAGAUGUAUUCUUCUCAUAAGAUAUAGUCGGACCUCUCCUUAAUGGGAGCUAGCGGAUGAAGUGAUGCAACACUGGAGCCGCUGGGAACUAAUUUGUAUGCGAAAGUAUAUUGAUUAGUUUUGGAGUACUCGUGGUCG
Method in brief: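 Pooled colonies went to amplicon sequencing on an Illumina HiSeq 2500 after six replicate transformations. The plates were LB agar with 100 μg/mL carbenicillin, 50 μM IPTG and 0.2% rhamnose, with or without 25 μg/mL kanamycin, incubated overnight at 37°C or 30°C. The E. coli BL21(DE3) library had all eight P1ex-region intron nucleotides randomised, the intron placed in the knt kanamycin-resistance gene on pET-22b(+). DiMSum fitness is the error-weighted combination of replicate fold changes, kanamycin against none, normalised to wild type.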

Sequence | self-splicing fitness (ln) (37 °C) | self-splicing fitness (ln) (30 °C)
GGCGAGCAAUAUUACGAGAC | -1.1 ± 0.92 | –
AACGAGCAAUAUUACGGCUC | -2.63 ± 0.62 | –
GCGAAGCAAUAUUACGGCCC | – | -0.653 ± 0.59
AUCGAGCAAUAUUACGCUCU | -3.23 ± 1 | -3.39 ± 0.55
AUUCAGCAAUAUUACGUGGA | -1.79 ± 0.12 | -2.72 ± 0.18
CCAUAGCAAUAUUACGAAUA | -3.09 ± 0.6 | -3.44 ± 0.6
UCAGAGCAAUAUUACGCGCC | -1.6 ± 0.67 | –
GUAGAGCAAUAUUACGGUUC | -0.825 ± 0.14 | -1.84 ± 0.11
GCAGAGCAAUAUUACGCUCU | -1.58 ± 0.54 | –
UGGGAGCAAUAUUACGCUGU | – | -4.4 ± 1
CUAGAGCAAUAUUACGUCAC | -1.72 ± 0.29 | -3.34 ± 0.36
ACAUAGCAAUAUUACGGGCC | – | -3.37 ± 0.6
CUUCAGCAAUAUUACGCUCC | -3.4 ± 0.73 | –
CUAGAGCAAUAUUACGGAUU | – | -5.04 ± 0.72
GGGAAGCAAUAUUACGACGC | -0.0751 ± 0.18 | -0.0345 ± 0.14
UCAAAGCAAUAUUACGGGGC | -2.14 ± 0.19 | -2.18 ± 0.16
ACGUAGCAAUAUUACGGCCC | 0.0459 ± 0.25 | -0.341 ± 0.15
ACAGAGCAAUAUUACGUAAA | -2.09 ± 0.13 | -3.71 ± 0.16
GGUAAGCAAUAUUACGCGAU | -2.33 ± 0.55 | –
AUAUAGCAAUAUUACGUUCC | -1.96 ± 0.51 | –
AAACAGCAAUAUUACGUGGA | -1.95 ± 0.1 | -3.1 ± 0.14
CGGGAGCAAUAUUACGCUCU | -2.78 ± 0.75 | –
CUAGAGCAAUAUUACGGCCC | -3.11 ± 0.6 | -3.76 ± 0.53
GCCUAGCAAUAUUACGCCUG | -1.72 ± 0.7 | -3.96 ± 1

Sequence | self-splicing fitness (ln) (37 °C) | self-splicing fitness (ln) (30 °C)
AGGGAGCAAUAUUACGCUUG | -1.37 ± 0.87 | –
CACGAGCAAUAUUACGCCCU | -0.633 ± 0.67 | –
GAAGAGCAAUAUUACGCUCA | – | -2.23 ± 0.66
CUUUAGCAAUAUUACGAAGU | – | -2.53 ± 0.77
CUGAAGCAAUAUUACGCACC | -3.25 ± 1 | –
CGCUAGCAAUAUUACGGACC | -1.29 ± 0.51 | –
UUCUAGCAAUAUUACGUCAU | -2.87 ± 0.54 | –
GGGCAGCAAUAUUACGCCUC | -1.42 ± 0.31 | -3.87 ± 1
CCUCAGCAAUAUUACGCUCC | -2.04 ± 0.79 | –
UGAGAGCAAUAUUACGGUAC | – | -3.4 ± 1.1
GAUGAGCAAUAUUACGCAAA | -2.07 ± 0.56 | -2.55 ± 0.51
GGGGAGCAAUAUUACGAGAC | -1.5 ± 0.52 | –
CGCUAGCAAUAUUACGUCGG | -0.631 ± 0.12 | -1.6 ± 0.075
CGGAAGCAAUAUUACGAAAA | -2.39 ± 1.1 | -3.21 ± 1.1
CACGAGCAAUAUUACGCUAG | – | -3.27 ± 0.52
UAUUAGCAAUAUUACGUGUG | -0.549 ± 0.084 | -0.846 ± 0.067
GACCAGCAAUAUUACGUCUA | -0.724 ± 0.081 | -1.44 ± 0.085
UAUGAGCAAUAUUACGACAU | -2.56 ± 0.042 | -3.523 ± 0.029
GUUGAGCAAUAUUACGUACG | -2.31 ± 0.45 | -2.57 ± 0.39
UAAGAGCAAUAUUACGGUUU | -1.85 ± 0.23 | -3.48 ± 0.24
AUGGAGCAAUAUUACGCUCC | -1.78 ± 1.2 | -4.17 ± 1.1
GCUGAGCAAUAUUACGGUUG | -2.67 ± 0.35 | -3.64 ± 0.31
CAAUAGCAAUAUUACGAACA | – | -1.06 ± 0.51
AGAGAGCAAUAUUACGGGAC | – | -2.5 ± 0.57

Sequence | self-splicing fitness (ln) (37 °C) | self-splicing fitness (ln) (30 °C)
CUUUAGCAAUAUUACGACGC | – | -2.52 ± 0.8
CUUCAGCAAUAUUACGACCG | -0.454 ± 0.12 | 0.185 ± 0.083
CGUAAGCAAUAUUACGACAA | – | -4 ± 0.51
AUCCAGCAAUAUUACGGAAC | -1.06 ± 0.15 | -2.68 ± 0.18
UUUGAGCAAUAUUACGACCA | -0.595 ± 1.4 | -3.81 ± 0.75
UCAAAGCAAUAUUACGCCUC | – | -2.99 ± 0.53
UCUGAGCAAUAUUACGAUAC | – | -3.31 ± 0.74
AAUAAGCAAUAUUACGAAGG | -2.04 ± 0.39 | -3.39 ± 0.48
UUCGAGCAAUAUUACGCCCG | -1.11 ± 0.73 | –
GUUCAGCAAUAUUACGGACC | – | -4.01 ± 0.6
CACUAGCAAUAUUACGCCUC | – | -3.51 ± 0.73
AGGAAGCAAUAUUACGGAUA | – | -2.38 ± 0.56
UGACAGCAAUAUUACGAAGU | -2.91 ± 0.28 | -3.26 ± 0.2
GUCCAGCAAUAUUACGGCCC | -0.415 ± 0.87 | -3.44 ± 0.62
UCUUAGCAAUAUUACGCCUU | – | -4.77 ± 0.59
AUGGAGCAAUAUUACGGGCC | -1.54 ± 1.2 | –
UCGGAGCAAUAUUACGAAGG | -2.21 ± 0.63 | –
CGGGAGCAAUAUUACGUUCC | -1.84 ± 1.1 | –
CUCUAGCAAUAUUACGACAA | -2.35 ± 0.28 | -3.54 ± 0.74
GGGUAGCAAUAUUACGGCUC | -0.44 ± 1.4 | -0.998 ± 0.82
CCUCAGCAAUAUUACGAGGC | – | -4.23 ± 0.59
CGCAAGCAAUAUUACGAGAA | – | -0.86 ± 1
GACGAGCAAUAUUACGACCG | -2.76 ± 1.1 | -1.21 ± 0.57
GUAAAGCAAUAUUACGAUCC | 0.363 ± 0.29 | -0.0218 ± 0.18

Sequence | self-splicing fitness (ln) (37 °C) | self-splicing fitness (ln) (30 °C)
CCAUAGCAAUAUUACGCAUC | -2.31 ± 0.3 | -3.39 ± 0.27
UGAGAGCAAUAUUACGUACU | – | -2.16 ± 0.5
CUGGAGCAAUAUUACGCCCG | -1.26 ± 0.56 | –
CGACAGCAAUAUUACGCAGA | -2.06 ± 0.1 | -2.61 ± 0.1
GAGCAGCAAUAUUACGCCUA | 0.0984 ± 0.085 | -0.758 ± 0.064
UGGCAGCAAUAUUACGUGCC | – | -4.23 ± 0.73
AGGCAGCAAUAUUACGCUAC | -2.48 ± 1.1 | –
CUGGAGCAAUAUUACGAGAC | – | -3.88 ± 0.54
UCAUAGCAAUAUUACGACUU | -2.42 ± 0.39 | -3.87 ± 0.28
GACUAGCAAUAUUACGUGUC | -3.12 ± 0.6 | –
AGCCAGCAAUAUUACGGCCC | – | -2.02 ± 1.2
UAGGAGCAAUAUUACGCCUU | -1.6 ± 0.53 | -2.44 ± 0.54
CGGGAGCAAUAUUACGCUCG | – | -2.5 ± 0.73
CGUGAGCAAUAUUACGGAGC | -1.33 ± 0.82 | –
GUUUAGCAAUAUUACGUCAG | -1.78 ± 1.2 | -3.08 ± 0.76
CGAAAGCAAUAUUACGGACG | -2.25 ± 0.22 | -2.73 ± 0.21
UUUGAGCAAUAUUACGAUGC | – | -4.71 ± 0.51
UCCGAGCAAUAUUACGCACG | -3.3 ± 1 | –
AGGGAGCAAUAUUACGCCCA | -0.897 ± 0.34 | -1.26 ± 0.69
UGAGAGCAAUAUUACGUAAC | -0.933 ± 0.51 | –
CCGGAGCAAUAUUACGACAC | -2.8 ± 0.53 | -6.28 ± 1
GACUAGCAAUAUUACGGCCC | – | -1.35 ± 0.74
UUAGAGCAAUAUUACGACGC | -1.83 ± 0.56 | –
UCCUAGCAAUAUUACGGCUC | – | -2.44 ± 1.1

Sequence | self-splicing fitness (ln) (37 °C) | self-splicing fitness (ln) (30 °C)
UUGCAGCAAUAUUACGCACC | -1.79 ± 1.2 | –
UGUAAGCAAUAUUACGGGGA | – | -4.39 ± 0.51
CGAAAGCAAUAUUACGUCAC | – | -4.66 ± 0.51
GGUGAGCAAUAUUACGGGGG | -3.15 ± 1 | –
UCUUAGCAAUAUUACGAUUC | -2.77 ± 0.75 | –
GCGGAGCAAUAUUACGCUGG | – | -3.6 ± 1
UCGAAGCAAUAUUACGAGUC | -2.77 ± 0.62 | –
GUUCAGCAAUAUUACGAAAC | -0.734 ± 0.22 | -1.48 ± 0.23
GUUCAGCAAUAUUACGUACU | 0.162 ± 0.13 | -1.24 ± 0.1
GAGUAGCAAUAUUACGCGCU | – | -4.44 ± 1
CGGGAGCAAUAUUACGUCUU | -0.499 ± 0.36 | -4.19 ± 0.59
UUGGAGCAAUAUUACGCGCC | -0.778 ± 0.71 | –
GCUGAGCAAUAUUACGGGCU | -3.34 ± 0.52 | –
UGGGAGCAAUAUUACGUAGU | – | -4.19 ± 0.53
GAGCAGCAAUAUUACGGAUU | 0.538 ± 0.11 | -1.2 ± 0.1
UUCAAGCAAUAUUACGAGCC | -1.82 ± 0.58 | –
UAUAAGCAAUAUUACGUCUC | – | -4.42 ± 0.73
UUGUAGCAAUAUUACGAUGC | – | -5.04 ± 0.58
CUAGAGCAAUAUUACGCCGG | – | -3.93 ± 0.6
GAGUAGCAAUAUUACGACUC | -1 ± 0.92 | –
AUUGAGCAAUAUUACGUGAC | -1.61 ± 0.45 | -4.25 ± 0.74
UGGGAGCAAUAUUACGGUUC | – | -3.42 ± 0.73
UCAGAGCAAUAUUACGCCCU | – | -3.98 ± 0.73

Source: the supplement of paper PMC7877785
